Laboratory results published in the supplement of paper PMC10849652.
Some of the results follow.

The chains behind the UniProt entries cited, without tags or fusion partners. Where a name states a change or a piece, a line headed by the entry shows the natural chain unless it says otherwise.
UniProt Q9HB09: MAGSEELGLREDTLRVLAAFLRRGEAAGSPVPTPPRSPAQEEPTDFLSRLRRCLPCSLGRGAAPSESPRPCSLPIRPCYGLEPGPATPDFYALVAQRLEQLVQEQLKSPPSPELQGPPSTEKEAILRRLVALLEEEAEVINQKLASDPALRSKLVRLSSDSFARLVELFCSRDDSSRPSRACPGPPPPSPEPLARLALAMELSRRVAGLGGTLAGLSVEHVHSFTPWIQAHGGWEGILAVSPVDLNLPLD
UniProt O15382: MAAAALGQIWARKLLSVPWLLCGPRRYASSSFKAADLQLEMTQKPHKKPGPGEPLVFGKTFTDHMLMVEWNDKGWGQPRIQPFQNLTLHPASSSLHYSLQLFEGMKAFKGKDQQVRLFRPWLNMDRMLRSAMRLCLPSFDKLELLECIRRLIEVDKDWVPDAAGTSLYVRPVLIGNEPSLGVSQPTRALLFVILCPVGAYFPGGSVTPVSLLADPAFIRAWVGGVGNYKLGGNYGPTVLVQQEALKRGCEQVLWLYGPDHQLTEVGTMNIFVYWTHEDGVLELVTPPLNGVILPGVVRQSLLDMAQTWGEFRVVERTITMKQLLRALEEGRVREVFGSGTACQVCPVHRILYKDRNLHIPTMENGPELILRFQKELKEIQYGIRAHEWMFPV
UniProt P21953: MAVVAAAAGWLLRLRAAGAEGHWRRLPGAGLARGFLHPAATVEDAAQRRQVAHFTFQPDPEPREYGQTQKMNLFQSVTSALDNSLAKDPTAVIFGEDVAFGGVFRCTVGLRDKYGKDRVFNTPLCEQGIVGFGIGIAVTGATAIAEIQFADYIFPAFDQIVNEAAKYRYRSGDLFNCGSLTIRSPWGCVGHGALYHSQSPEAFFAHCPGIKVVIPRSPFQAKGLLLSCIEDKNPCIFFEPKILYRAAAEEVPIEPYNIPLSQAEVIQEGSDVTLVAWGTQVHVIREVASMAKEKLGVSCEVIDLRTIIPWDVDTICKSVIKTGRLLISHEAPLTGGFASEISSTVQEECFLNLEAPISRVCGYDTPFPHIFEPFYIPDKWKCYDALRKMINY
UniProt O75934: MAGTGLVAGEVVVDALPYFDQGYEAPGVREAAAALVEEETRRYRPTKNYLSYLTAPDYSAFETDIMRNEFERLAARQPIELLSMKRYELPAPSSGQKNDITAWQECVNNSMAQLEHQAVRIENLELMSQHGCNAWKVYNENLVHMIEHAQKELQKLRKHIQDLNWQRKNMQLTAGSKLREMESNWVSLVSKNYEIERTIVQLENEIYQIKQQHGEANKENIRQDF
UniProt Q14137: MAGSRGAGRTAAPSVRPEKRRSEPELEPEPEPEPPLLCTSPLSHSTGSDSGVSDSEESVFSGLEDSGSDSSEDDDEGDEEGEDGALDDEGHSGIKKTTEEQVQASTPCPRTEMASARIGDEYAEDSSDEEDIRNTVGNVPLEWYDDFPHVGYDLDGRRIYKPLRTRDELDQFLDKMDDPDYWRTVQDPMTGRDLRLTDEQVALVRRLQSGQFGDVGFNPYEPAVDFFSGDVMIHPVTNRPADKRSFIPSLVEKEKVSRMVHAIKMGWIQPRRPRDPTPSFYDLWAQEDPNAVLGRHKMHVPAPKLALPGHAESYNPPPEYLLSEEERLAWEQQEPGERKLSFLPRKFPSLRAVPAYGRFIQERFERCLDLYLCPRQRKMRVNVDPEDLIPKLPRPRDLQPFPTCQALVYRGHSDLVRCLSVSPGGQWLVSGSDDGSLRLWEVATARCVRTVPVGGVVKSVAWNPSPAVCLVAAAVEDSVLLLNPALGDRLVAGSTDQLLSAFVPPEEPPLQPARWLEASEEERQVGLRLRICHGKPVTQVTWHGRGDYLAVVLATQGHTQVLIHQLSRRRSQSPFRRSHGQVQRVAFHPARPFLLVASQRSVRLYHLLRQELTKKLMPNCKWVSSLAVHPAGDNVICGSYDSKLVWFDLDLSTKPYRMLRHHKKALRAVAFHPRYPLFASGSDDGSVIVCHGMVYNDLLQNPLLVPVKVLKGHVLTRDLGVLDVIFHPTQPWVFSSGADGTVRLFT
UniProt Q16611: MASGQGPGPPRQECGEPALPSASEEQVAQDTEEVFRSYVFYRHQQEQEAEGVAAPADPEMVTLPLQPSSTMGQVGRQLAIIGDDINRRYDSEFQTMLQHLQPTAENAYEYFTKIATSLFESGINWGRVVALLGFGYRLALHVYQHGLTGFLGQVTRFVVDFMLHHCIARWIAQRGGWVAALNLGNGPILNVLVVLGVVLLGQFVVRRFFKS
UniProt P55957: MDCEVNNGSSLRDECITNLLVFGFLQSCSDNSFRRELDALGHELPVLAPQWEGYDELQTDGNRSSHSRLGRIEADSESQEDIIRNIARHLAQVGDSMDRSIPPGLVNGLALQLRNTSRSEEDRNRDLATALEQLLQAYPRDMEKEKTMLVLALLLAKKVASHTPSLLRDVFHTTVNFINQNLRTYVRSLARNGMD
UniProt O95816: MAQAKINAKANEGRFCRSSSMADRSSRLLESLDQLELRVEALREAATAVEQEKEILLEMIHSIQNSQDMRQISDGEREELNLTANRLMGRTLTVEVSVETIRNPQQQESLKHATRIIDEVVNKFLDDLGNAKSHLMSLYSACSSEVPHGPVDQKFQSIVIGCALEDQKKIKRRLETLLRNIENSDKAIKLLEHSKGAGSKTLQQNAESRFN
UniProt Q9UHQ4: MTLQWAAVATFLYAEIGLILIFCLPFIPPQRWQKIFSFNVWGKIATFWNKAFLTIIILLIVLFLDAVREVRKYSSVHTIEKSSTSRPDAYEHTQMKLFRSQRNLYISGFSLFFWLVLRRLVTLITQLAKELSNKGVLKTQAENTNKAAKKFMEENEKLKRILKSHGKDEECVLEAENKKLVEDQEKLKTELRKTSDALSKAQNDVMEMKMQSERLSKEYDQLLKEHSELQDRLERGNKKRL
UniProt P61769, whole entry, looked up: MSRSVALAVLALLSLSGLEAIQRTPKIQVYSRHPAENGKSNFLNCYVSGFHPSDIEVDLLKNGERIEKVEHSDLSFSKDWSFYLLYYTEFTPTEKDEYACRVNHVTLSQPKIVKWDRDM
UniProt O95429: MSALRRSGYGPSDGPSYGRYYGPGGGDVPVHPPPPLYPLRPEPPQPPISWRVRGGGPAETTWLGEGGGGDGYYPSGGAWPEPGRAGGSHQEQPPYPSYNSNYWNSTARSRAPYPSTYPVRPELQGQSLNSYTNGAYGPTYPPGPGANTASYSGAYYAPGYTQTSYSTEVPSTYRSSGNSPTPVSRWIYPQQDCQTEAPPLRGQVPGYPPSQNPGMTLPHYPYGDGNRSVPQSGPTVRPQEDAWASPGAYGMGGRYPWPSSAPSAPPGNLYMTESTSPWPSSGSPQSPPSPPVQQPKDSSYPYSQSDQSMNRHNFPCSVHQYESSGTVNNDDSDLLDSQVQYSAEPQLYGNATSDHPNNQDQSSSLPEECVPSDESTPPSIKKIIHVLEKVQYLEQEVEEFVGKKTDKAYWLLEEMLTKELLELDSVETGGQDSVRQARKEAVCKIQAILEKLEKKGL
UniProt Q99933: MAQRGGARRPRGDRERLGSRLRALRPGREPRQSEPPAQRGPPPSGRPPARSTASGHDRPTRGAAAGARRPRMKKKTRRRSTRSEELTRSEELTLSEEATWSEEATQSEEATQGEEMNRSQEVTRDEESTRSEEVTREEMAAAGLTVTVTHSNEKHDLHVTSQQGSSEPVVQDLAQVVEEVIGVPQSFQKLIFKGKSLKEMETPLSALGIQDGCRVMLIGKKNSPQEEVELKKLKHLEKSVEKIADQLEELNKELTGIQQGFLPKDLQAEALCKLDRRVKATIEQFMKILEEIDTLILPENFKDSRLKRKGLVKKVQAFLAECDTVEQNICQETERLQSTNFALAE
UniProt Q07812, whole entry, looked up: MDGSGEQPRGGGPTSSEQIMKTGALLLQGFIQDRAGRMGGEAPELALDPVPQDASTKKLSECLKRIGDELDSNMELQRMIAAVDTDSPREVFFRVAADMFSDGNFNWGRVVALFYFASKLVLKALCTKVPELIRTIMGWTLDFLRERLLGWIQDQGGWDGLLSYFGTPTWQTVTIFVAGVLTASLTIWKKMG
UniProt O75882: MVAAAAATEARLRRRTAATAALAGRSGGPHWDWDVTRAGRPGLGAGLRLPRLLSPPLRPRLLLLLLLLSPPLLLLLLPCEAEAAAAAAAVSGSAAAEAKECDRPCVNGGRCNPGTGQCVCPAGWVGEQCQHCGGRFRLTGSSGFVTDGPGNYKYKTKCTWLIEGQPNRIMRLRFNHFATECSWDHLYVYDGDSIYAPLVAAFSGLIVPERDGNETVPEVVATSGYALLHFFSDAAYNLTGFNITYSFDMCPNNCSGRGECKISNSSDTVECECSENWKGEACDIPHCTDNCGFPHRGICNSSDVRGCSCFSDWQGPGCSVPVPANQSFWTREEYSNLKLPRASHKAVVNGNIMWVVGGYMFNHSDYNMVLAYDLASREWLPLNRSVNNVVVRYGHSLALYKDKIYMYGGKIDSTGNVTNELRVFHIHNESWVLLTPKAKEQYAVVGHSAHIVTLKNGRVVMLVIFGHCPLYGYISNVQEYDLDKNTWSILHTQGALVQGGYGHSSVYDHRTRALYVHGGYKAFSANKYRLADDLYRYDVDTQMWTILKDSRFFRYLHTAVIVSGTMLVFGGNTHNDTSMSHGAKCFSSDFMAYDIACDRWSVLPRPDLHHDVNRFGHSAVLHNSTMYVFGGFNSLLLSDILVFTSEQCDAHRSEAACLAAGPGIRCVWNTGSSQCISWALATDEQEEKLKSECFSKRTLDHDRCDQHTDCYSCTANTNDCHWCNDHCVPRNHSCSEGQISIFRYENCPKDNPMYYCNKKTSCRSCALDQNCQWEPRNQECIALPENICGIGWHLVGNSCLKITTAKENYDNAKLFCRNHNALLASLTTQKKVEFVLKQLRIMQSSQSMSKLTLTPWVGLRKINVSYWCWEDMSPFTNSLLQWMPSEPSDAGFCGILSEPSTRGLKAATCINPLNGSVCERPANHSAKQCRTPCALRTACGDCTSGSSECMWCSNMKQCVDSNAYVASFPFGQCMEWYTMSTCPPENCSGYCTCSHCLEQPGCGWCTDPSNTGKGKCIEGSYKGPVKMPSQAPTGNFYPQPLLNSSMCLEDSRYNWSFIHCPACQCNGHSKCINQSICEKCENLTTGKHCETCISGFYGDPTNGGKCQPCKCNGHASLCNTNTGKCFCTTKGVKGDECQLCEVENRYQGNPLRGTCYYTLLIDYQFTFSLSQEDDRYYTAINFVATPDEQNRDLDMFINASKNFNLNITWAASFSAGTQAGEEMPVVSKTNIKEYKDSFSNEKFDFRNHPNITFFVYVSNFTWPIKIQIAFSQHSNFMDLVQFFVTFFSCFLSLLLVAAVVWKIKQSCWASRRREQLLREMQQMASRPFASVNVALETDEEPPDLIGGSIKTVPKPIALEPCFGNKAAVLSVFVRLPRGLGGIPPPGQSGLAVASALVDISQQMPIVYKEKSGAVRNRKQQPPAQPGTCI
UniProt P51572: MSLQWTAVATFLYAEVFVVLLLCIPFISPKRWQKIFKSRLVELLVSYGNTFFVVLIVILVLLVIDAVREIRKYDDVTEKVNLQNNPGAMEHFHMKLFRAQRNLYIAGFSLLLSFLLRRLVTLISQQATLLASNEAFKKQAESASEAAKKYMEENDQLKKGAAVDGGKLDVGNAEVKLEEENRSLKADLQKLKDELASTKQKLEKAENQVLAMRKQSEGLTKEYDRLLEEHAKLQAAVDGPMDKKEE
UniProt P53004: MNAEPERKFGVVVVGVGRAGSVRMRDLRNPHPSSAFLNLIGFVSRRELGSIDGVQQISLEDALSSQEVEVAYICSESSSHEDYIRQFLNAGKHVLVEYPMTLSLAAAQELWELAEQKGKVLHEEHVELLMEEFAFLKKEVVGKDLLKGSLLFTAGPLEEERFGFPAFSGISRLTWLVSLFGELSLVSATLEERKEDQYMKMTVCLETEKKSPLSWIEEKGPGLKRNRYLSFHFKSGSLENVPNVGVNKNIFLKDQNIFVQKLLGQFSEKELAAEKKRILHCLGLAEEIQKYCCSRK
UniProt P07738: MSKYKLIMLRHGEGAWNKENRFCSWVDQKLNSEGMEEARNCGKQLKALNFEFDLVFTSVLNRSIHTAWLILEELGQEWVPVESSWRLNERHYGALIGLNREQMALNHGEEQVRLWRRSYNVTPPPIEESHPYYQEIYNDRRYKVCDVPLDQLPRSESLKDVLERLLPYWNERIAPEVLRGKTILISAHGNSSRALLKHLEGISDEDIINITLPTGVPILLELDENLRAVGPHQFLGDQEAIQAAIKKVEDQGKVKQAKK
UniProt Q6UW56: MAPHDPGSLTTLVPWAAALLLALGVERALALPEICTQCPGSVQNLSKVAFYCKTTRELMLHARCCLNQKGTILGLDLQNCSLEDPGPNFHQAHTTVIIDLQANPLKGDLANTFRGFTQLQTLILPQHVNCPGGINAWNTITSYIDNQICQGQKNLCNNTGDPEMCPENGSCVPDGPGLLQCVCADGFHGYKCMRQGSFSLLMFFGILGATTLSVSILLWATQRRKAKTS

These targets were tested with O=C(CCCCCCNC(=O)c1cnc(N(c2ccccc2)c2ccccc2Cl)nc1)NO [citarinostat] (assay: log2 fold change, soluble protein after heating vs DMSO (PISA); higher = thermal stabilisation; K562 cells, 10 uM, 30 min; active = over 0.2 and 3.5 SD of the protein, either way, in both replicates (recomputed)).
In short: (§1)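 Soluble protein was quantified by TMTpro 16plex LC-MS/MS after channel sums were equalised. It was obtained as the supernatant after 21,000xg for 90 min from pooled aliquots of K562 cells (2×10^6 cells/mL, 10 μM compound, 30 min) heated for 3 min across 48°C-58°C and extracted in PBS with 0.5% NP-40 at 4°C. Thermal stability values are relative to control samples and come from duplicates. They are given as log2 fold changes.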

log2 fold change, inactive:
BCL2L12 (UniProt Q9HB09) 0.032, BCAT2 (UniProt O15382) 0.045, BCKDHB (UniProt P21953) 0.06, BCAS2 (UniProt O75934) 0.033, BOP1 (UniProt Q14137) 0.035, BAK1 (UniProt Q16611) -0.024, BID isoform 2 (UniProt P55957) 0.006, BAG2 (UniProt O95816) -0.044, BCAP29 isoform 2 (UniProt Q9UHQ4) -0.015

Each target was assayed with O=C(O)c1ccc2c(c1)nc(Nc1cccc(Cl)c1)c1ccncc12 [silmitasertib] in the same assay as above.
In short: as §1

log2 fold change, inactive:
ATR (UniProt Q13535) 0.035, BRD3 (UniProt Q15059) 0.061, B2M (UniProt P61769) -0.01, BAG4 (UniProt O95429) -0.011, ATRIP (UniProt Q8WXE1) 0.112, BAG1 (UniProt Q99933) -0.023, BLOC1S4 (UniProt Q9NUP1) -0.016, BAX isoform 2 (UniProt Q07812) -0.017, ATRN (UniProt O75882) 0.006, BCAP31 isoform 2 (UniProt P51572) -0.032, BLVRA (UniProt P53004) -0.038, BPGM (UniProt P07738) -0.016, BLOC1S3 (UniProt Q6QNY0) 0.006, ATRAID isoform 3 (UniProt Q6UW56) 0.022
